{"source": "patent US20240409594A1", "about": "“PHOTOA[…] CHANNEL MODULATOR” (INSTITUT NATIONAL DE LA SANTÉ ET DE LA RECHERCHE MÉDICALE, priority 2021, published 2024)", "key": {"hNaV1.1": {"molecular_target": "T1, hNaV1.1 (Homo sapiens, UniProt P35498)", "T1 construct": "expressed in transfected cells", "test": "Automated patch-clamp, hNaV1.1 current inhibition in HEK293 cells", "assay_type": "cell-based"}, "mice": {"tested_on": "mice", "assay_type": "in vivo, mouse", "settings": "0.5 mg/kg intraperitoneal, 10 min"}, "[1]": {"tested_on": "L5 pyramidal neurons from mouse brain slices", "test": "Action potential recordings in L5 pyramidal neurons from neocortical brain slices", "settings": "500 nM, local application, n=6 cells"}, "hNaV1.2": {"molecular_target": "T2, hNaV1.2 (Homo sapiens, UniProt Q99250)", "T2 construct": "expressed in transfected cells", "test": "Automated patch-clamp and photoactivation, hNaV1.2 current in HEK293 cells", "assay_type": "cell-based"}, "hNaV1.6": {"molecular_target": "T3, hNaV1.6 (Homo sapiens, UniProt Q9UQD0)", "T3 construct": "expressed in transfected cells", "test": "Automated patch-clamp and photoactivation, hNaV1.6 current in HEK293 cells", "assay_type": "cell-based"}}, "note": "Read-outs that look alike come from different tables or passages of the source. Not every detail of the peptide structures is certain; ends, links or a residue may be inferred.", "data": [{"smiles": "CC[C@H](C)[C@@H]1NC(=O)CNC(=O)[C@H](CC(C)C)NC(=O)[C@@H](NC(=O)CN)CSSC[C@@H]2NC(=O)[C@@H]3CSSC[C@@H](C(=O)N[C@@H](CCCCN)C(=O)N[C@@H](Cc4ccc(O)cc4)C(=O)N[C@@H](CCC(N)=O)C(=O)N[C@H](C(=O)N[C@@H](CCCCN)C(N)=O)[C@@H](C)CC)NC(=O)[C@H](Cc4c[nH]c5ccccc45)NC(=O)[C@H](CCCNC(=N)N)NC(=O)[C@H]([C@@H](C)O)NC(=O)[C@H](CCCCN)NC(=O)[C@H](CCCNC(=N)N)NC(=O)[C@H](CO)NC(=O)[C@H](CSSC[C@H](NC(=O)[C@H](C)NC(=O)[C@H](CCCCN)NC(=O)[C@H](Cc4ccccc4)NC1=O)C(=O)N[C@@H](CC(N)=O)C(=O)N1CCC[C@H]1C(=O)N[C@@H](CO)C(=O)N[C@@H](CC(N)=O)C(=O)N[C@@H](CC(=O)O)C(=O)N[C@@H](CCC(N)=O)C(=O)N3)NC(=O)[C@H](C(C)C)NC(=O)[C@H](CC(C)C)NC(=O)[C@H](CCCCN)NC(=O)[C@H](CO)NC(=O)[C@H](CO)NC(=O)[C@H](CCCCN)NC2=O", "note": "[HwTxIV analog]", "values": [{"measurement": "IC50", "setting": "hNaV1.1; FIG. 1b series, analog selection study, read-out: NaV1.1 current dose-response value (Hill equation fit)", "result": "18.9 ± 1.2", "unit": "nM"}, {"measurement": "IC50", "setting": "hNaV1.1; FIG. 2b series, caged vs non-caged, holding −100 mV, read-out: IC50 hNaV1.1 current inhibition", "result": 3.6, "unit": "nM"}, {"measurement": "Effect on mice motor behaviour", "setting": "mice", "result": "drastically reduce motor behaviour"}, {"measurement": "Effect on action potential (AP) in L5 pyramidal neurons", "setting": "[1]", "result": "inhibited"}, {"measurement": "IC50", "setting": "hNaV1.2; FIG. 1b series, analog selection study, read-out: NaV1.2 current dose-response value (Hill equation fit)", "result": "11.9 ± 1.1", "unit": "nM"}, {"measurement": "IC50", "setting": "hNaV1.2; FIG. 2c series, caged vs non-caged, read-out: IC50 hNaV1.2 current inhibition", "result": 3.23, "unit": "nM"}, {"measurement": "IC50", "setting": "hNaV1.6; FIG. 1b series, analog selection study, read-out: NaV1.6 current dose-response value (Hill equation fit)", "result": "19.5 ± 1.3", "unit": "nM"}, {"measurement": "IC50", "setting": "hNaV1.6; FIG. 2a / FIG. 3f series, caged vs non-caged vs uncaged, holding −100 mV, read-out: IC50 NaV1.6 current inhibition", "result": 22.4, "unit": "nM"}]}]}
